Measured values taken from article doi:10.1101/2020.03.18.994004.
These are yes or no findings as the source states them, for the method shown. Some results given as binding are weak or reduced against the parent protein; the word gives no strength.

Chains of the proteins cited; added tags and fusions are not shown. Lines headed by an entry give the natural chain unless they say otherwise; changes in a name come on top.
UniProt P35609: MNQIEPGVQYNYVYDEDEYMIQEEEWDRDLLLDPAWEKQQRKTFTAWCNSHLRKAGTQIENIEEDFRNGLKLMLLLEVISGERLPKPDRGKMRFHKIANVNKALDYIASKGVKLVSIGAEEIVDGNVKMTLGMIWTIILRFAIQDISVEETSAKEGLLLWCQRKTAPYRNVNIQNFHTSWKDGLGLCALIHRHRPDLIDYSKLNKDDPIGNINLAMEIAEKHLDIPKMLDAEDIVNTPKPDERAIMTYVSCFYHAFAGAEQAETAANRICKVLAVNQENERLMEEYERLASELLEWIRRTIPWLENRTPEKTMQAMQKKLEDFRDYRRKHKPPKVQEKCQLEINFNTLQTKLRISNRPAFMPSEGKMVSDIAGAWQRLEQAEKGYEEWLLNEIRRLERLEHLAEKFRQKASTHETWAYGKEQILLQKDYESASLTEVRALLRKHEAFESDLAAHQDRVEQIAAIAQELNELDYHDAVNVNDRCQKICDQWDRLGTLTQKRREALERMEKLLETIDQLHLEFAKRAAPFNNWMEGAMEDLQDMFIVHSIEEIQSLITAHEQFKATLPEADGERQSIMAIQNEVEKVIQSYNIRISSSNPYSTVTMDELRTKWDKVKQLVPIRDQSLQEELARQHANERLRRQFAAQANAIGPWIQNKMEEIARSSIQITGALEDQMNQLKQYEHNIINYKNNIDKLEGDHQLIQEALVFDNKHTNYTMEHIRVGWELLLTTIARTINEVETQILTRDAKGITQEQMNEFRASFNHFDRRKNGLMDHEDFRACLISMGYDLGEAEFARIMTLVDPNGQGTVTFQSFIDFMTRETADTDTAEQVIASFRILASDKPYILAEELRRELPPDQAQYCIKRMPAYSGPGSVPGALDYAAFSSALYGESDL

What was measured:
[1] = target: full-length actinin, mammalian two-hybrid bait (human) (UniProt P35609); assay: two-hybrid
[2] = target: T1, IGF2BP2 KH domain (residues 161-600), mammalian two-hybrid bait (human) (UniProt Q9Y6M1); assay: two-hybrid
T1 sequence: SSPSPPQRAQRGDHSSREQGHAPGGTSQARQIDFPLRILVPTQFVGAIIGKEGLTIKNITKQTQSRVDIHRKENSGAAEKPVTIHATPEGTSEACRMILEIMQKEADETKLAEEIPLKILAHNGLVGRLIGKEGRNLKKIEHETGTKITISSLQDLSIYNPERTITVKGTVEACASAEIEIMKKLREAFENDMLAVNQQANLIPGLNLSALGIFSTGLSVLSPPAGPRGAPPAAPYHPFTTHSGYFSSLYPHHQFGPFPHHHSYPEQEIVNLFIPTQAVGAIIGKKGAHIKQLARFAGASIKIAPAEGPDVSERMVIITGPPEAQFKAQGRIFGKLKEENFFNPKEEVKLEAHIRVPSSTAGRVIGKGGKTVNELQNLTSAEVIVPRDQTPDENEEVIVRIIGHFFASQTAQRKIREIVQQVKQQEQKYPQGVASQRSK

Row | binding [1] | binding [2] | Substance
1 | binds | – | full-length IGF2BP2, mammalian two-hybrid prey (from UniProt Q9Y6M1 1-599)
2 | – | binds | actinin rod domain (residues 276-750), mammalian two-hybrid prey (from UniProt P35609 276-750) (domain or fragment)
